Earlier results, collected in paper PMC6923452, “SHBG141–161 Domain-Peptide Stimulates GPRC6A-Mediated Response in Leydig and β-Langerhans cell lines” (Scientific Reports, 2019).

System: GPRC6A
Set-up: method as in 2 sources, ref 5 = [5]; PMID 15576628; doi:10.1124/mol.104.007559; 5. Wellendorph P Deorphanization of GPRC6A: a promiscuous L-alpha-amino acid receptor with preference for basic amino acids Molecular Pharmacology 2005 67 3 589 97 10.1124/mol.104.007559 15576628 ||| ref 6 = [6]; PMID 20947496; doi:10.1074/jbc.M110.158063; 6. Pi M Parrill AL Quarles LD GPRC6A mediates the non-genomic effects of steroids Journal of Biological Chemistry 2010 285 51 39953 64 10.1074/jbc.M110.158063 20947496 PMC3000977
Conditions: cited from earlier work

SMILES: NCCC[C@H](N)C(=O)O [L-ornithine]
- activation of GPRC6A: activated
